From PubChem BioAssay AID2417 (National Center for Advancing Translational Sciences (NCATS), 2010)
About 4,300 (3.1%) of roughly 140,000 compounds were called active. The shares of active, inactive and inconclusive entries below differ from those in the screen.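 The calls were made as follows: active = readout at or below -70, meaning at least 70% loss of cells showing the perinucleolar compartment, a nuclear body marking cancer cells; inconclusive = readout between -30 and a set limit; inactive = the rest.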

Experiment: High Content Assay for Compounds that inhibit the Assembly of the Perinucleolar Compartment;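 also: plate controls were DMSO wells for no effect and camptothecin positive control wells for full effect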
Settings: PC3M PTB-GFP, PNC prevalence imaging, 16 h; at 10 µM; active compounds read low
Summary of the method: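 Read-out is percentage of cells bearing a perinucleolar compartment, from automated 20x imaging of fixed, Hoechst-stained PC3M PTB-GFP cells. Cells were seeded 4 h, then exposed 16 h to compound (23 nl of library stock) in duplicate plates.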

Row | Compound | activity change (PNC), negative = inhibition
1 | COc1ccc(S(=O)(=O)n2c(CCN3CCOCC3)nc3ccccc32)cc1 | inconclusive: -49.2%
2 | CN(C)c1nc(-c2ccccn2)nnc1-c1ccccc1 | inactive: -26.4%
3 | O=C(CCc1ccccc1)Nc1ccc(NC(=O)c2ccco2)nc1 | inconclusive: -57.7%
4 | Clc1ccccc1CSc1nncn1NC/C=C/c1ccccc1 | inconclusive: -55.8%
5 | CN1CC[n+]2cnc3ccccc3c21 | inconclusive: -35.4%
6 | N#Cc1cc2c(nc1SCC(=O)Nc1sc3c(c1C#N)CCC3)CCCCCC2 | inconclusive: -47.9%
7 | COC(=O)c1ccccc1NC(=O)c1sc(=S)n(C)c1N | inconclusive: -30.1%
8 | COc1cccc(/C=N/Nc2ncnc(Cl)c2N)c1O | inconclusive: -37.6%
9 | CCC1(C)N(O)C(C)(C)C(c2ccc(F)cc2)=[N+]1[O-] (stereo not drawn) | active: -100%
10 | O=c1c2ccccc2nc(SCc2ccc([N+](=O)[O-])cc2)n1-c1ccc(Cl)cc1 | inconclusive: -44.7%
11 | CCC(Sc1nc2cc3c(cc2c(=O)n1Cc1ccco1)OCO3)C(=O)Nc1cccc(OC)c1 (stereo not drawn) | inconclusive: -30.2%
12 | COc1ccc(OC)c(S(=O)(=O)NCCO)c1 | inconclusive: -50.8%
13 | COC(=O)c1ccnc(SCC(=O)c2ccccc2)c1 | inconclusive: -35.4%
14 | Cc1onc(-c2ccccc2)c1-c1nc2ccccc2c(=O)o1 | inconclusive: -44%
15 | CCc1ccc2c(c1)[C@]1(C(=O)N2)[C@@H]2C(=O)N(Cc3ccccc3)C(=O)[C@@H]2[C@@H]2CCCN21 | inconclusive: -44.5%
16 | Cc1cccc(-c2nnc3n2N=C(c2ccccc2Br)CS3)c1 | inactive: -1.49%
17 | O=C(O)C1CCC(=O)N1Cc1ccc(F)cc1 (stereo not drawn) | inconclusive: -33.4%
18 | O=C(NC12CC3CC(CC(C3)C1)C2)N1CCCC(CO)C1 (stereo not drawn) | inconclusive: -49.8%
19 | CC(C)C(c1nnnn1C1CCCCC1)N1CCc2ccccc2C1 (stereo not drawn) | inactive: 8.69%
20 | CC1Cc2nc(SCC(=O)N3CCN(c4ccccc4)CC3)n(CCc3ccccc3)c(=O)c2S1 (stereo not drawn) | inconclusive: -46.4%
21 | CCOC(=O)c1c(C)n(C)c2ccc(OCC(O)Cn3nc(C)cc3C)cc12 (stereo not drawn) | inactive: 32.2%
22 | Cn1c(=O)[nH]c(=O)c2c1nc(NCCc1ccccc1)n2CC(O)COc1ccccc1 (stereo not drawn) | inconclusive: -42.4%
23 | CN1CCN(NC(=O)CN2C(=O)/C(=C/c3ccccc3Cl)SC2=S)CC1 | inactive: -9.87%
24 | CCOC(=O)c1ccc(Oc2nc(OC)nc(N(C)C)n2)cc1 | active: -93.3%

Row | Compound | activity change (PNC), negative = inhibition
25 | CCOc1ccc(S(=O)(=O)Oc2ccc3ccccc3c2)cc1 | inconclusive: -38.5%
26 | O=C(O)CCCC(=O)NCCc1ccncc1 | inconclusive: -58.5%
27 | COc1cc(C2C3=C(Nc4ncnn42)c2ccccc2CC3)cc(OC)c1OC (stereo not drawn) | inconclusive: -50.6%
28 | Cn1ncc([N+](=O)[O-])c1C(=O)Nc1ccc2c(c1)OCCO2 | inactive: 53.2%
29 | CCOc1ccccc1C1CC(c2ccccc2)Nc2nc(N)nn21 (stereo not drawn) | inconclusive: -79.1%
30 | CCc1nnc(/N=C/c2c(O)n(-c3ccc(Cl)cn3)c(=O)c3ccccc23)s1 | inconclusive: -32.5%
31 | CCNC(=O)c1ccc(CSc2ccc(Cl)cc2)cc1 | active: -109%
32 | Cc1ccc(CCNC(=O)C2CCN(C(=O)N(C)C)CC2)cc1 | inconclusive: -30.4%
33 | C/C(=N\NC(=O)c1cccnc1)c1cc(C)oc1C | inactive: 48.1%
34 | Cc1sc(NC(=S)NC(=O)c2ccc(C(C)(C)C)cc2)c(C#N)c1C | inconclusive: -32%
35 | COc1ccc(OC)c(NC(=O)Cn2cc(C(=O)c3ccco3)c3ccccc32)c1 | inconclusive: -34.5%
36 | CC(=O)Nc1ccc(OCC(O)Cn2c3ccccc3c3ccccc32)cc1 (stereo not drawn) | inconclusive: -38%
37 | Cc1ccc(SC(=O)COc2ccc(C)c(C)c2)cc1 | active: -106%
38 | COc1ccc(C(=O)COC(=O)c2ccc(NC(=O)c3ccccc3)cc2)cc1 | inactive: -1.04%
39 | CCc1cccc2cc3c(N)c(C(=O)Nc4ccc(S(=O)(=O)N5CCCC5)cc4)sc3nc12 | inactive: 31.1%
40 | C=C(Cl)COc1cc(C)cc2oc(=O)cc(CC)c12 | inactive: 25.2%
41 | O=[N+]([O-])c1cccc(-c2nnn(C34CC5CC(CC(C5)C3)C4)n2)c1 | inactive: -7.56%
42 | CCOC(=O)CCCCC(=O)c1[nH]c(=O)[nH]c1CSc1nc(C)cc(C)n1 | inconclusive: -31%
43 | COc1ccc(OCC#CCNC(C)(C)C)cc1 | inactive: 12.8%
44 | CCCC(=O)N(Cc1cc2cccc(C)c2[nH]c1=O)c1ccccc1OC | inconclusive: -31.6%
45 | O=C1CSC2(C(=O)N3CCCc4cccc2c43)N1c1cccc(C(F)(F)F)c1 (stereo not drawn) | inactive: 51.6%
46 | O=c1[nH]c(CN2CCc3ccccc3C2)nc2ccccc12 | inconclusive: -43.3%
47 | Cn1c(Cc2ccccc2)nnc1SCC(=O)c1cccs1 | inactive: -1.66%
48 | O=C(/C=C/c1ccc(Br)cc1)NC1CCCCCC1 | inconclusive: -41.4%

Given with tabs: 23 of the compounds above
Row	Compound	activity change (PNC), negative = inhibition
1	COc1ccc(S(=O)(=O)n2c(CCN3CCOCC3)nc3ccccc32)cc1	inconclusive: -49.2%
3	O=C(CCc1ccccc1)Nc1ccc(NC(=O)c2ccco2)nc1	inconclusive: -57.7%
9	CCC1(C)N(O)C(C)(C)C(c2ccc(F)cc2)=[N+]1[O-] (stereo not drawn)	active: -100%
11	CCC(Sc1nc2cc3c(cc2c(=O)n1Cc1ccco1)OCO3)C(=O)Nc1cccc(OC)c1 (stereo not drawn)	inconclusive: -30.2%
13	COC(=O)c1ccnc(SCC(=O)c2ccccc2)c1	inconclusive: -35.4%
14	Cc1onc(-c2ccccc2)c1-c1nc2ccccc2c(=O)o1	inconclusive: -44%
15	CCc1ccc2c(c1)[C@]1(C(=O)N2)[C@@H]2C(=O)N(Cc3ccccc3)C(=O)[C@@H]2[C@@H]2CCCN21	inconclusive: -44.5%
16	Cc1cccc(-c2nnc3n2N=C(c2ccccc2Br)CS3)c1	inactive: -1.49%
17	O=C(O)C1CCC(=O)N1Cc1ccc(F)cc1 (stereo not drawn)	inconclusive: -33.4%
18	O=C(NC12CC3CC(CC(C3)C1)C2)N1CCCC(CO)C1 (stereo not drawn)	inconclusive: -49.8%
19	CC(C)C(c1nnnn1C1CCCCC1)N1CCc2ccccc2C1 (stereo not drawn)	inactive: 8.69%
21	CCOC(=O)c1c(C)n(C)c2ccc(OCC(O)Cn3nc(C)cc3C)cc12 (stereo not drawn)	inactive: 32.2%
26	O=C(O)CCCC(=O)NCCc1ccncc1	inconclusive: -58.5%
28	Cn1ncc([N+](=O)[O-])c1C(=O)Nc1ccc2c(c1)OCCO2	inactive: 53.2%
33	C/C(=N\NC(=O)c1cccnc1)c1cc(C)oc1C	inactive: 48.1%
35	COc1ccc(OC)c(NC(=O)Cn2cc(C(=O)c3ccco3)c3ccccc32)c1	inconclusive: -34.5%
36	CC(=O)Nc1ccc(OCC(O)Cn2c3ccccc3c3ccccc32)cc1 (stereo not drawn)	inconclusive: -38%
37	Cc1ccc(SC(=O)COc2ccc(C)c(C)c2)cc1	active: -106%
40	C=C(Cl)COc1cc(C)cc2oc(=O)cc(CC)c12	inactive: 25.2%
42	CCOC(=O)CCCCC(=O)c1[nH]c(=O)[nH]c1CSc1nc(C)cc(C)n1	inconclusive: -31%
45	O=C1CSC2(C(=O)N3CCCc4cccc2c43)N1c1cccc(C(F)(F)F)c1 (stereo not drawn)	inactive: 51.6%
47	Cn1c(Cc2ccccc2)nnc1SCC(=O)c1cccs1	inactive: -1.66%
48	O=C(/C=C/c1ccc(Br)cc1)NC1CCCCCC1	inconclusive: -41.4%

Further entries:

Row | Compound | activity change (PNC), negative = inhibition
49 | O=C(Nc1ccccn1)c1ccc(NC(=O)c2ccco2)cc1 | inconclusive: -63.6%
50 | CN(Cc1cccs1)S(=O)(=O)c1cccs1 | inconclusive: -43.8%
51 | Cc1cc(C)c2nc(N3CCN(C)CC3)c(C#N)cc2c1 | inconclusive: -39.2%
52 | CCCC(=O)Nc1nc2ccc(OCC)cc2s1 | inactive: 27%
53 | CN(C1CCCCC1)S(=O)(=O)c1ccc(S(=O)(=O)N2CCN(C(=O)c3ccccc3F)CC2)cc1 | inconclusive: -40.8%
54 | O=C(COC(=O)Cc1ccsc1)NCC12CC3CC(CC(C3)C1)C2 | inconclusive: -68.7%
55 | CCOc1ccc(N(CC(=O)Nc2ccccc2C)S(=O)(=O)c2c(C)noc2C)cc1 | active: -88.2%
56 | COc1cccc(/C=N/NC(=O)c2ccccc2N(Cc2ccccc2)S(=O)(=O)c2ccccc2)c1OC | inactive: 56.8%
57 | O=C(O)c1ccc(-n2nnnc2Oc2cccc3cccnc23)cc1 | inconclusive: -31.7%
58 | CCN(CC)CCCNC(=O)c1cc2c(=O)n(C)c3ccccc3c2n1C | inconclusive: -33.5%
59 | Cc1nn(-c2ccccc2)c(Cl)c1/C=C1/C(=N)N2N=C(C(C)C)SC2=NC1=O | inconclusive: -43.2%
60 | CCOP(=O)(OCC)C(NC(=O)Nc1cccc(Cl)c1)c1ccccc1 (stereo not drawn) | active: -113%
61 | CCN(CC)S(=O)(=O)c1ccc(F)c(C(=O)NCCC(C)C)c1 | active: -100%
62 | CCn1c(C(C)NC(=O)c2cccc(C)c2)nc2ccccc21 (stereo not drawn) | inconclusive: -42.2%
63 | Cc1ccc(S(=O)(=O)N2CCOCC2)c(C)c1-n1cnnn1 | inconclusive: -49.4%
64 | CC(C)Sc1nnc(NC(=O)C2CC2)s1 | inconclusive: -48.4%
65 | Cc1ccc(C)c(NS(=O)(=O)c2ccc(NC(=O)c3ccco3)cc2)c1 | active: -100%
66 | NC(=O)N1CCN(C(=O)c2ccco2)CC1 | inconclusive: -53.8%
67 | O=C(Nc1ccc(N2CCCCC2)c(Cl)c1)c1ncn[nH]1 | inconclusive: -55.1%
68 | Cc1ccc(-n2c(C)cc(/C=N/Nc3ccc([N+](=O)[O-])cn3)c2C)cc1 | inactive: 14.4%
69 | CCOc1ccc(S(=O)(=O)N(CC(=O)N/N=C/c2cccs2)c2ccc(C)cc2)cc1 | inconclusive: -38.6%
70 | COC(=O)C1=C(N)Oc2cc(C)n(Cc3cccnc3)c(=O)c2C1c1ccccc1OC (stereo not drawn) | active: -85.9%
71 | O=C(CCc1ccccc1)n1nc(-c2ccco2)nc1SCc1ccccc1 | inconclusive: -36%
72 | Cc1ccc(NC(=O)C(Cc2ccccc2)N2C(=O)C3C4CCC(C4)C3C2=O)cc1Cl (stereo not drawn) | inconclusive: -40.7%

Row | Compound | activity change (PNC), negative = inhibition
73 | COc1cccc(/C=N/N2CCN(C)CC2)c1 | inconclusive: -73.4%
74 | O=C(c1ccc(Cl)c(Cl)c1)N1CCCC1 | inactive: 50.1%
75 | COc1ccc(C(=O)n2nc(-c3ccc(Cl)cc3)nc2N)cc1OC | inconclusive: -74.1%
76 | COc1cc(Cl)c(C)cc1NC(=O)CSc1ccccc1 | active: -125%
77 | COCCCNC(=O)Nc1ccc(F)cc1F | inconclusive: -51.2%
78 | CN1CCN(Cc2c(C#N)c3ccccc3n2C)CC1 | inconclusive: -62.1%
79 | COc1ccc(C2C(C#N)=C(N)Oc3c2sc2nc(C)cc(C)c32)cc1 (stereo not drawn) | inactive: 14%
80 | CC(C)CC1C(C#N)=C(N)SC(N)=C1C#N | inconclusive: -42.7%
81 | CC1(C)CC(=O)C=C(N2CCCC2)C1 | inconclusive: -50.3%
82 | CCCNC(=O)N1CCN(C(=O)NCCC)CC1 | inconclusive: -49.5%
83 | COc1cc(C2C3CN(C)CC=C3C(C#N)=C(N)C2(C#N)C#N)ccc1OC(C)C (stereo not drawn) | inconclusive: -55.6%
84 | COc1ccc(-c2nn(CCC(=O)O)cc2CCC(=O)O)cc1 | inactive: -9.34%
85 | CCc1cccc(NS(=O)(=O)c2c(C)n[nH]c2C)c1 | active: -100%
86 | CS(=O)(=O)N(CC(=O)N1CCCC1)c1ccc(Cl)c(Cl)c1 | inconclusive: -30.9%
87 | Cc1cc(C)n(C(=O)CCC(=O)NCc2ccccc2)n1 | inconclusive: -38.4%
88 | CNC(=O)C1=C(C)NC(=S)NC1c1cc2c(cc1OC)CCCC2 (stereo not drawn) | inconclusive: -38.2%
89 | O=C(Nc1nccs1)C1C2/C=C\CCCCC21 (stereo not drawn) | inconclusive: -50%
90 | Cc1ccc(/C=N/n2c(=O)c(C(C)(C)C)nn3cnnc23)cc1 | active: -94.1%
91 | COc1ccc(S(=O)(=O)n2ccc(-c3ccc(OCCN(C)c4ccccn4)cc3)n2)cc1 | inactive: 37.9%
92 | Cc1c(C)n(C(=O)CSc2nccn2C)c2ccccc12 | inconclusive: -66.9%
93 | COc1ccc(C(c2nnnn2C2CCCC2)N2CCC(C(N)=O)CC2)c(OC)c1 (stereo not drawn) | inconclusive: -70%
